Source: US10532113B2 (Ramot at Tel-Aviv University Ltd., priority 2014, dated 2020)

Assay: general procedure: Fmoc solid-phase peptide synthesis; 2-chlorotrityl chloride beads
Conditions: late stage modification step

## MA-Gly-Phe-Leu-Gly-PABA
  step yield: 53%
